Results taken from PubChem BioAssay AID1508645 (National Center for Advancing Translational Sciences (NCATS), 2021).
The inconclusive results got no clear call from the source; some entries with a clear call stand among them for comparison. Where the call is inconclusive, the potency comes from a doubtful curve fit. Calls of active or inactive are those of the source. Calls follow the shape of the dose curve; as a rule, active = well fitted cell-killing curve with a large enough effect; inconclusive = small, poorly fitted or top-dose-only effect, or effect the other way; inactive = no such curve, though single readings can be large or run the other way.

Test: Cell viability assay in S16 Pmp22-HiBiT cells
Conditions: S16 Schwann Pmp22-HiBiT viability, CellTiter-Glo, 24 h; activity change, negative = cytotoxicity: at 27.9 µM (top of the series)
Description: Assay Provider: Jim Inglese Ph.D. National Center for Advancing Translational Science, National Institutes of Health, Rockville, MD CMT is a heterogeneous group of neurological disorders that affect approximately 1 in 2,500 people. In particular, the most common form of CMT, CMT1A is genetically linked to the duplication of the PMP22 gene which leads to Schwann cell overexpression, thus manifesting itself as a typical case of dose-sensitive diseases. To identify small molecule compounds that can mediate the expression of PMP22 we developed a phenotypic assay screening strategy by utilizing genome editing techniques to construct Schwann cell lines containing novel reporter technology to monitor the transcriptional or translational regulation of PMP22. For high sensitivity we use a bioluminescent reporter system embedded in the 3' UTR of the PMP22 gene (S16(c9) Pmp22-F2sN) to identify compounds that inhibit gene expression. […] We can further discriminate the effect of all transcriptionally active molecules on PMP22 translation or stability with an assay that incorporates a short NLuc peptide (HiBiT) at the C-terminus of expressed PMP22 (S16(f8) PMP22-HiBiT) allowing alpha complementation and luminescence detection of membrane-associated PMP22 protein. These assays were screened against the NCATS Sytravon Library Collection. Miniaturization of these assays to 1536-well plate format for quantitative high throughput screening (qHTS) yielded rich data sets immediately from the qHTS assay (S16(c9) Pmp22-F2sN), when compared with data from a cell viability assay (Cell TiterGlo) to identify compounds that decreased the output signals through cellular toxicity to streamline the selection process of actives for subsequent characterization using the HiBiT assay (S16(f8) PMP22-HiBiT).
Cell viability assay in S16 Pmp22-HiBiT cells PROTOCOL TABLE (format as described by Inglese J, Shamu CE and Guy RK. 2007) SEQUENCE No. (e.g., 1, 2, 3, etc.); PARAMETER (e.g., Cells, Incubation, Reagent, etc.); VALUE and DESCRIPTION. 1. Cells. Add 500-1,000 cells in 4 uL in growth media (DMEM High Glucose, No Phenol Red media + 10% heat-inactivated FBS + 1% Pen/Strep supplemented media) per well into Greiner 1536-well white/solid bottom high base, TC-treated plates. 2. Compounds. Library compounds and controls added at 23nL per well, transferred by Pin Tool. 3. Incubation. Incubate plates at 37C, 5% CO2, 95% RH for 24 h. 4. Reagent. Add 3uL CellTiter-Glo per well of Greiner 1536-well plates. 5. Incubation. Incubate plates at room temperature for 15 min., protect from light. 6. Detector. Luminescence measured using CCD-based camera (Viewlux). NOTES (numbers refer to Sequence numbers above; values are from representative experiments) 6. Luminescence Read: Clear filter; Exposure = 1 sec, Gain = High, Speed = Slow, Binning = 2X REFERENCES: 1. Inglese J, Shamu CE and Guy RK, Reporting data from high throughput screening of small molecule libraries, Nature Chemical Biology, 2007, 3(8): 438-441. doi.org/10.1038/nchembio0807-438 2. Yasgar A, Shinn P, Jadhav A, Auld DS, Michael S, Zheng W, Austin CP, Inglese J and Simeonov A, Compound Management for Quantitative High-Throughput Screening. J. Assoc. Lab. Auto., 2008, 13: 79-89. doi: 10.1016/j.jala.2007.12.004

Row | SMILES | Potency | activity change, negative = cytotoxicity
1 | COc1ccc(Cl)cc1NC(=O)CCCS(=O)(=O)c1nc(-c2ccc(OC)c(OC)c2)cc(C(F)(F)F)n1 | active: 6.45 µM | –
2 | CCOC(=O)c1ccc(N2C(=O)c3[nH]nc(-c4ccc(C)cc4)c3C2c2ccc(O)c(OCC)c2)cc1 (stereo not given) | inactive | –
3 | CCCC1=Nc2cc(C(=O)NC3CCCCC3)ccc2Sc2ccc(C)cc21 | inconclusive: 2.29 µM [rising, full curve] | –
4 | COc1ccccc1-c1cc(C(F)(F)F)nc(S(=O)(=O)CCCC(=O)Nc2ccc(F)cc2F)n1 | inconclusive: 22.9 µM [cytotoxic, single point] | –
5 | COC(=O)c1c(-c2ccc(Cl)cc2)noc1N1CCN(c2ccc(F)cc2)CC1 | inconclusive: 12.9 µM [rising, partial curve, poor fit] | –
6 | COc1ccc(-c2cc(C(F)(F)F)nc(S(C)(=O)=O)n2)cc1 | inconclusive: 14.5 µM [cytotoxic, partial curve, poor fit] | –
7 | CCCN1CCN(CCCNC(=O)Cn2c(-c3cccs3)cc3ccccc32)CC1 | inconclusive: 5.75 µM [rising, full curve] | –
8 | Cc1cccc(-n2c(=O)c3c(c4cc(C)ccc4n3C)n(CC(=O)NCCC3=CCCCC3)c2=O)c1 | inconclusive: 6.45 µM [cytotoxic, partial curve] | –
9 | Cc1ccc(CN2C(=O)C(O)(c3c(C)[nH]c4ccccc34)c3ccccc32)cc1 (stereo not given) | inconclusive: 20.4 µM [rising, single point] | –
10 | COc1ccc(-c2noc(CSc3nnc(-c4ccncc4)n3-c3ccc(C)cc3)n2)cc1 | inactive | –
11 | COc1ccc(C)cc1NS(=O)(=O)c1ccc(-c2cnc(C3CC3)o2)cc1 | inconclusive: 2.29 µM [rising, full curve] | –
12 | COc1ccc(CCNC(=O)Cn2c(-c3cccs3)cc3cc(F)ccc32)cc1OC | inactive | –
13 | CCc1ccc(C(=O)c2cn(CC(=O)Nc3cc(OC)cc(OC)c3)c3ccc(CC)cc3c2=O)cc1 | inactive | –
14 | CCC(=O)C1=C(c2cccc([N+](=O)[O-])c2)N(C(=O)CC)n2c(nnc2-c2ccccc2)S1 | inactive | –
15 | O=C(CSc1nc2c([nH]c3ccccc32)c(=O)n1-c1cccc(Cl)c1)c1ccccc1 | inactive | –
16 | COc1ccc(NC(=O)CCS(=O)(=O)c2nc(-c3cccs3)cc(C(F)(F)F)n2)cc1 | inconclusive: 14.5 µM [rising, partial curve] | –
17 | COC(=O)c1ccccc1NC(=O)c1nc(S(=O)(=O)Cc2cccc(C)c2)ncc1Cl | inconclusive: 18.2 µM [cytotoxic, single point] | –
18 | Clc1cccc(-c2noc3ncnc(NC4CCCCC4)c23)c1 | inconclusive: 1.62 µM [rising, partial curve] | –
19 | CCS(=O)(=O)c1ncc(Cl)c(C(=O)Nc2c(C(=O)c3ccc(C)cc3)oc3ccccc23)n1 | inconclusive: 2.57 µM [rising, full curve] | –
20 | CCOc1ccc(NC(=O)CSc2oc(-c3ccc(F)cc3)nc2S(=O)(=O)c2ccc(C)cc2)cc1 | inconclusive: 8.13 µM [cytotoxic, partial curve] | –

Reformatted: results already given

| Row | SMILES | Potency | activity change, negative = cytotoxicity |
| --- | --- | --- | --- |
| 7 | CCCN1CCN(CCCNC(=O)Cn2c(-c3cccs3)cc3ccccc32)CC1 | inconclusive: 5.75 µM [rising, full curve] | – |
| 8 | Cc1cccc(-n2c(=O)c3c(c4cc(C)ccc4n3C)n(CC(=O)NCCC3=CCCCC3)c2=O)c1 | inconclusive: 6.45 µM [cytotoxic, partial curve] | – |
| 9 | Cc1ccc(CN2C(=O)C(O)(c3c(C)[nH]c4ccccc34)c3ccccc32)cc1 (stereo not given) | inconclusive: 20.4 µM [rising, single point] | – |
| 10 | COc1ccc(-c2noc(CSc3nnc(-c4ccncc4)n3-c3ccc(C)cc3)n2)cc1 | inactive | – |
| 11 | COc1ccc(C)cc1NS(=O)(=O)c1ccc(-c2cnc(C3CC3)o2)cc1 | inconclusive: 2.29 µM [rising, full curve] | – |
| 12 | COc1ccc(CCNC(=O)Cn2c(-c3cccs3)cc3cc(F)ccc32)cc1OC | inactive | – |
| 13 | CCc1ccc(C(=O)c2cn(CC(=O)Nc3cc(OC)cc(OC)c3)c3ccc(CC)cc3c2=O)cc1 | inactive | – |
| 14 | CCC(=O)C1=C(c2cccc([N+](=O)[O-])c2)N(C(=O)CC)n2c(nnc2-c2ccccc2)S1 | inactive | – |
| 15 | O=C(CSc1nc2c([nH]c3ccccc32)c(=O)n1-c1cccc(Cl)c1)c1ccccc1 | inactive | – |
| 16 | COc1ccc(NC(=O)CCS(=O)(=O)c2nc(-c3cccs3)cc(C(F)(F)F)n2)cc1 | inconclusive: 14.5 µM [rising, partial curve] | – |
| 17 | COC(=O)c1ccccc1NC(=O)c1nc(S(=O)(=O)Cc2cccc(C)c2)ncc1Cl | inconclusive: 18.2 µM [cytotoxic, single point] | – |
| 18 | Clc1cccc(-c2noc3ncnc(NC4CCCCC4)c23)c1 | inconclusive: 1.62 µM [rising, partial curve] | – |

The list goes on:

Row | SMILES | Potency | activity change, negative = cytotoxicity
21 | COc1ccc(Nc2nc3c(S(=O)(=O)c4ccccc4)nnn3c3ccc(Cl)cc23)cc1 | inactive | –
22 | Cc1ccc(CNC(=O)c2ccc(Nc3nc4ccccc4n4nnnc34)cc2)cc1 | inactive | –
23 | CCOCCCNC(=O)c1ccc(-n2c(-c3ccccc3)cc3c2CCC(C)C3)cc1 (stereo not given) | inactive | –
24 | O=C(Cn1c(-c2cccs2)cc2cc(F)ccc21)NCCCN1CCN(c2ccccc2F)CC1 | – | inconclusive: 37.2%
25 | COC(=O)c1c(-c2ccc(Cl)cc2)noc1N1CCN(c2ccccc2OC)CC1 | inactive | –
26 | CCOc1ccc(C(=O)c2cnc3ccc(Cl)cc3c2S(=O)(=O)c2ccc(C)cc2)cc1 | inconclusive: 1.62 µM [rising, partial curve] | –
27 | Cn1c(=O)oc2cc(S(=O)(=O)N3CCCC(C(=O)N4CCN(c5cccc(Cl)c5)CC4)C3)ccc21 (stereo not given) | – | inconclusive: -41.1% [cytotoxic]
28 | O=C(CCS(=O)(=O)c1nc(-c2cccs2)cc(C(F)(F)F)n1)Nc1ccc(Br)cc1 | inconclusive: 20.4 µM [cytotoxic, single point] | –
29 | COC(=O)c1c(-c2ccc(Cl)cc2)noc1N1CCN(c2cc(C)ccc2C)CC1 | inconclusive: 20.4 µM [cytotoxic, single point] | –
30 | Cc1ccc(CNC(=O)c2ccc(Cn3c(=O)c4ccccc4n(CC(=O)Nc4c(C)cc(C)cc4C)c3=O)cc2)cc1 | inconclusive: 14.5 µM [cytotoxic, partial curve, poor fit] | –
31 | CCCCCS(=O)(=O)c1oc(-c2cccs2)nc1S(=O)(=O)c1ccc(C)cc1 | inconclusive: 16.2 µM [cytotoxic, single point] | –
32 | Cc1ccc(NC(=O)c2nc(S(=O)(=O)Cc3cccc(C)c3)ncc2Cl)cc1 | inconclusive: 16.2 µM [cytotoxic, single point] | –
33 | COc1ccc(NC(=O)c2nc(S(=O)(=O)Cc3ccc(C)cc3)ncc2Cl)cc1 | active: 8.13 µM | –
34 | O=C(Cn1c(-c2cccs2)cc2ccccc21)NCCCN1CCN(c2ccc(F)cc2)CC1 | inconclusive: 10.2 µM [rising, partial curve] | –
35 | CCCn1c(=N)c(C(=O)NC(C)c2ccccc2)cc2c(=O)n3ccccc3nc21 (stereo not given) | inactive | –
36 | Cc1cccc(Nc2c3c(nc4nncn24)CCC3)c1C | inactive | –
37 | Cc1ccc(S(=O)(=O)c2nnn3c2nc(NC2CCCCCC2)c2sccc23)cc1C | inactive | –
38 | CCC1=Nc2cc(C(=O)NCCCOC)ccc2Sc2ccc(Br)cc21 | inconclusive: 1.62 µM [rising, full curve] | –
39 | COC(=O)CS(=O)(=O)c1nc2ccccc2nc1N1CCCCC1 | inconclusive: 20.4 µM [rising, partial curve, poor fit] | –
40 | Cc1cccc(CS(=O)(=O)c2ncc(Cl)c(C(=O)Nc3nc4ccc(F)cc4s3)n2)c1 | active: 6.45 µM | –
